Structures can show the parent of a compound that is named as a salt. The list shows a part of the results. Most values lie at the level of the controls, where differences are scatter.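 Reh, a human leukemia cell line, is read out by flow cytometry as the median γH2AX antibody signal in S-phase cells; the score counts standard deviations from the median difference of each paired plate set. Scores above 2.5 were candidate hits; scores below -2 mark compounds lowering MK1775-induced damage.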
system: Reh; assay: Z' of S-phase gammaH2AX difference (drug + MK1775 minus drug alone) (Z-score); higher = stronger synergistic S-phase DNA damage with MK1775; conditions: MK1775 concentration 400 nM; first compound 10 µM; 4 h

Structure (SMILES) | Z' of S-phase gammaH2AX difference (Z-score)
O=C(O)[C@H]1C[C@H](C(=O)O)N1 (relative stereo) [trans-Azetidine-2,4-dicarboxylic acid] + C=CCn1c(=O)c2cnc(Nc3ccc(N4CCN(C)CC4)cc3)nc2n1-c1cccc(C(C)(C)O)n1 [MK1775] | inactive: -0.291
O=P(O)(O)C(Cl)(Cl)P(=O)(O)O [Clodronic acid] + C=CCn1c(=O)c2cnc(Nc3ccc(N4CCN(C)CC4)cc3)nc2n1-c1cccc(C(C)(C)O)n1 [MK1775] | inactive: -0.935
N#C/C(=C/c1ccc(O)c(O)c1)C(=O)N1CCc2ccccc21 [Tyrphostin AG 528] + C=CCn1c(=O)c2cnc(Nc3ccc(N4CCN(C)CC4)cc3)nc2n1-c1cccc(C(C)(C)O)n1 [MK1775] | inactive: 0.0541
C[C@@H](NC(=O)/C(C#N)=C/c1ccc(O)c(O)c1)c1ccccc1 [Tyrphostin AG 527] + C=CCn1c(=O)c2cnc(Nc3ccc(N4CCN(C)CC4)cc3)nc2n1-c1cccc(C(C)(C)O)n1 [MK1775] | inactive: -0.129
Nc1ccccc1NC(=O)c1ccc(CNC(=O)OCc2cccnc2)cc1 [Entinostat (MS-275, SNDX-275)] + C=CCn1c(=O)c2cnc(Nc3ccc(N4CCN(C)CC4)cc3)nc2n1-c1cccc(C(C)(C)O)n1 [MK1775] | inactive: -0.169
O=C1NCN(c2ccccc2)C12CCN(CCCC(c1ccc(F)cc1)c1ccc(F)cc1)CC2 [Fluspirilene] + C=CCn1c(=O)c2cnc(Nc3ccc(N4CCN(C)CC4)cc3)nc2n1-c1cccc(C(C)(C)O)n1 [MK1775] | inactive: -0.0704
COc1cccc(OC)c1OCCNCC1COc2ccccc2O1 (stereo unspecified) [WB-4101 hydrochloride] + C=CCn1c(=O)c2cnc(Nc3ccc(N4CCN(C)CC4)cc3)nc2n1-c1cccc(C(C)(C)O)n1 [MK1775] | inactive: 1.05
O=[N+]([O-])c1cccc2c(Br)[nH]nc12 [3-Bromo-7-nitroindazole] + C=CCn1c(=O)c2cnc(Nc3ccc(N4CCN(C)CC4)cc3)nc2n1-c1cccc(C(C)(C)O)n1 [MK1775] | inactive: -0.0635
O=C(O)CCC(=O)N1CCC[C@H]1C(=O)O [N-Succinyl-L-proline] + C=CCn1c(=O)c2cnc(Nc3ccc(N4CCN(C)CC4)cc3)nc2n1-c1cccc(C(C)(C)O)n1 [MK1775] | inactive: -1.36
N=C(N)NC(=O)c1nc(Cl)c(N)nc1N [Amiloride hydrochloride] + C=CCn1c(=O)c2cnc(Nc3ccc(N4CCN(C)CC4)cc3)nc2n1-c1cccc(C(C)(C)O)n1 [MK1775] | inactive: -0.1
CN(C)CC[C@H](CSc1ccccc1)Nc1ccc(S(=O)(=O)NC(=O)c2ccc(N3CCN(Cc4ccccc4-c4ccc(Cl)cc4)CC3)cc2)cc1[N+](=O)[O-] + C=CCn1c(=O)c2cnc(Nc3ccc(N4CCN(C)CC4)cc3)nc2n1-c1cccc(C(C)(C)O)n1 [MK1775] | inactive: 1.62
CC(=O)SCC[N+](C)(C)C [Acetylthiocholine chloride] + C=CCn1c(=O)c2cnc(Nc3ccc(N4CCN(C)CC4)cc3)nc2n1-c1cccc(C(C)(C)O)n1 [MK1775] | inactive: -0.575
CC(C)COC(=O)OCN1C(=O)CN(CCN2CC(=O)N(COC(=O)OCC(C)C)C(=O)C2)CC1=O [Sobuzoxane] + C=CCn1c(=O)c2cnc(Nc3ccc(N4CCN(C)CC4)cc3)nc2n1-c1cccc(C(C)(C)O)n1 [MK1775] | inactive: 1.82
NS(=O)(=O)c1cc2c(cc1Cl)N=CNS2(=O)=O [Chlorothiazide] + C=CCn1c(=O)c2cnc(Nc3ccc(N4CCN(C)CC4)cc3)nc2n1-c1cccc(C(C)(C)O)n1 [MK1775] | inactive: 1.09
CN[C@H](CC(C)C)C(=O)N[C@H]1C(=O)N[C@@H](CC(N)=O)C(=O)N[C@H]2C(=O)N[C@H]3C(=O)N[C@H](C(=O)N[C@H](C(=O)O)c4cc(O)cc(O)c4-c4cc3ccc4O)[C@H](O)c3ccc(c(Cl)c3)Oc3cc2cc(c3O[C@@H]2O[C@H](CO)[C@@H](O)[C@H](O)[C@H]2O[C@H]2C[C@](C)(N)[C@H](O)[C@H](C)O2)Oc2ccc(cc2Cl)[C@H]1O [Vancomycin hydrochloride from Streptomyces orientalis] + C=CCn1c(=O)c2cnc(Nc3ccc(N4CCN(C)CC4)cc3)nc2n1-c1cccc(C(C)(C)O)n1 [MK1775] | inactive: 0.352
NC(=O)c1ncn([C@@H]2O[C@H](CO)[C@@H](O)[C@H]2O)n1 [Ribavirin] + C=CCn1c(=O)c2cnc(Nc3ccc(N4CCN(C)CC4)cc3)nc2n1-c1cccc(C(C)(C)O)n1 [MK1775] | inactive: 1.47
Cn1c(=O)c2[nH]c(C3CCCC3)nc2n(C)c1=O [8-Cyclopentyl-1,3-dimethylxanthine] + C=CCn1c(=O)c2cnc(Nc3ccc(N4CCN(C)CC4)cc3)nc2n1-c1cccc(C(C)(C)O)n1 [MK1775] | inactive: 0.13
CC(C)COCC(CN(Cc1ccccc1)c1ccccc1)N1CCCC1 (stereo unspecified) [Bepridil hydrochloride] + C=CCn1c(=O)c2cnc(Nc3ccc(N4CCN(C)CC4)cc3)nc2n1-c1cccc(C(C)(C)O)n1 [MK1775] | inactive: -0.307
NS(=O)(=O)c1cc(C(=O)O)c(NCc2ccco2)cc1Cl [Furosemide] + C=CCn1c(=O)c2cnc(Nc3ccc(N4CCN(C)CC4)cc3)nc2n1-c1cccc(C(C)(C)O)n1 [MK1775] | inactive: -0.44
NC(=S)c1ccc[n+]([C@@H]2O[C@@H](COP(=O)([O-])OP(=O)(O)OC[C@H]3O[C@@H](n4cnc5c(N)ncnc54)C(OP(=O)(O)O)[C@H]3O)C(O)C2O)c1 (stereo partly specified) [Thio-NADP sodium] + C=CCn1c(=O)c2cnc(Nc3ccc(N4CCN(C)CC4)cc3)nc2n1-c1cccc(C(C)(C)O)n1 [MK1775] | inactive: 0.393
O=C(O)C(=O)O.[NH-]C1CCCCC1[NH-].[Pt+2] (stereo unspecified) [Oxaliplatin (Eloxatin)] + C=CCn1c(=O)c2cnc(Nc3ccc(N4CCN(C)CC4)cc3)nc2n1-c1cccc(C(C)(C)O)n1 [MK1775] | inactive: -0.0983

Individual results from above:
Entry of Cn1c(=O)c2[nH]c(C3CCCC3)nc2n(C)c1=O [8-Cyclopentyl-1,3-dimethylxanthine] + C=CCn1c(=O)c2cnc(Nc3ccc(N4CCN(C)CC4)cc3)nc2n1-c1cccc(C(C)(C)O)n1 [MK1775] under Z' of S-phase gammaH2AX difference (Z-score): inactive: 0.13
Entry of CC(=O)SCC[N+](C)(C)C [Acetylthiocholine chloride] + C=CCn1c(=O)c2cnc(Nc3ccc(N4CCN(C)CC4)cc3)nc2n1-c1cccc(C(C)(C)O)n1 [MK1775] under Z' of S-phase gammaH2AX difference (Z-score): inactive: -0.575

Reference: the supplement of paper PMC5355238
